Measurements as given in article PMC7819943, “Rice protein-binding microarrays: a tool to detect cis-acting elements near promoter regions in rice”.
The list shows a part of the results.

Amino acid sequences for entries named in this document (tags omitted).
UniProt Q0JBA9, entry or part of it: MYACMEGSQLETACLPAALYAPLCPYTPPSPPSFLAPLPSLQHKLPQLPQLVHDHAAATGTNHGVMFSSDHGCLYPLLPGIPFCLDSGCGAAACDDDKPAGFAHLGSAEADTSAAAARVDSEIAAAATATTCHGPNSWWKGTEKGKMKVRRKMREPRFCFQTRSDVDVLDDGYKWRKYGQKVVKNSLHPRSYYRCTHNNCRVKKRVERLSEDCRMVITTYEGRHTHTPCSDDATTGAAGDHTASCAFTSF

These sequences were tested against OsWRKY34 (Oryza sativa, UniProt Q0JBA9 1-250) (assay: protein-binding microarray (RPBM); PBS, 2% BSA, 51.3 ng/ul salmon testes DNA, 50 uM zinc acetate, 200 nM TF, 25 C, 1 h; high values mean tight binding). Conditions: protein: recombinant; tags: N-terminal polyhistidine and DsRed monomer fusion (pET32a); label: CyDye5-dUTP incorporated in the synthesized complementary strand; 3' TTTTT single-stranded linker to array surface; dsDNA, one strand shown.
Summary of the method: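 The binding signal is fluorescence intensity per array feature (arbitrary units). Readings came from an Axon 4000B scanner after a washed, 2% BSA-blocked, double-stranded custom Agilent array had been incubated for 1 h at 25 °C with 200 nM protein and 50 µM zinc acetate. The protein was a Ni–NTA-purified transcription factor fused N-terminally to polyhistidine and DsRed, expressed in E. coli BL21-CodonPlus.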

Sequence	binding signal
TTTCCCTATTTCTTTCAGATTTTATATGTAGAAAGAATCACGGAGTCACCTAGTGCAG	11700 fluorescence intensity (a.u.)
GCAATTCACACATCCATTGTCCAAGATCCTGATAAAGTTCCGGAGTCACCTAGTGCAG	8210 fluorescence intensity (a.u.)
AGTCATGTACTAATAATTTTATCATCACACCTTTAGTACTCGGAGTCACCTAGTGCAG	9700 fluorescence intensity (a.u.)
ACGCGCGGGCGGGGCGGGTGACGTCGCTGTCCCTCCCGGGCGGAGTCACCTAGTGCAG	8400 fluorescence intensity (a.u.)
AGCGACTGCATGCTTTGATCGATCCATCTAGCTAATTGTTCGGAGTCACCTAGTGCAG	8060 fluorescence intensity (a.u.)
GCGGTGATGACAGACGGGAGAGGGAGGGTTTTTTTTGTTACGGAGTCACCTAGTGCAG	18200 fluorescence intensity (a.u.)
ATACTTTTGATAGTCATATTTCATCTTAGCACACAGACCACGGAGTCACCTAGTGCAG	8240 fluorescence intensity (a.u.)
CACTCGACCGCCTTTGCTCCGCTTCGCCGGCCGCCCCGCACGGAGTCACCTAGTGCAG	10600 fluorescence intensity (a.u.)
GCTATATAGCTTCATTTACAACCTAGTACGTATACACCTCCGGAGTCACCTAGTGCAG	9020 fluorescence intensity (a.u.)
TTTTAAATTACCTGTAGTCTGAACTCTTATGTTGACTTTGCGGAGTCACCTAGTGCAG	8200 fluorescence intensity (a.u.)
TTTCAACTCACTTCTCTCGTTTTCCTTGTACACGTTTTCCCGGAGTCACCTAGTGCAG	10700 fluorescence intensity (a.u.)
GTCGCTTGCGCTTCACCGTCTTGCCATAGGTAGTCACTTCCGGAGTCACCTAGTGCAG	8270 fluorescence intensity (a.u.)
GGGAGCCATTTTGTTAACATTCATATCTAGTATTGGGGTTCGGAGTCACCTAGTGCAG	15100 fluorescence intensity (a.u.)
TCCACATCATCCGACCAACTCTACCAGCCATTCCACCCGCCGGAGTCACCTAGTGCAG	9160 fluorescence intensity (a.u.)
GTAGAGGTGGTAGAAATTGATAGGAAGTTTAGTTGGAGACCGGAGTCACCTAGTGCAG	8620 fluorescence intensity (a.u.)
TGCTTGCAGGCAAATCAAAACAATTGCTAGGTCGTTGACCCGGAGTCACCTAGTGCAG	8520 fluorescence intensity (a.u.)
TTAGGCCAAGTATGGGGTTGGGGCTATGGAGGAGAAGGGCCGGAGTCACCTAGTGCAG	9790 fluorescence intensity (a.u.)
GACCGGTGCACCCAGCCCACCACCTTCTCCCTGCACCCACCGGAGTCACCTAGTGCAG	8840 fluorescence intensity (a.u.)
GCCGCCGGGCACCACATTTGCAGCAGCGCCGCCTCCGCCGCGGAGTCACCTAGTGCAG	9970 fluorescence intensity (a.u.)
CCTTCGTCGACCCTCCGCCGCCGCCGCCGCCGCCGCCGACCGGAGTCACCTAGTGCAG	8660 fluorescence intensity (a.u.)
AATTATGTGAAAGGGGTGGGTGCAAAACTATCACCTTGACCGGAGTCACCTAGTGCAG	9860 fluorescence intensity (a.u.)

Sequence	binding signal
CCTTCCGACATCCGGTCAAACGTCTGATGTGACACCCAAACGGAGTCACCTAGTGCAG	10000 fluorescence intensity (a.u.)
ATCTCTGTGATCGATCTGCAAGCCATGACGGACCCGCTGTCGGAGTCACCTAGTGCAG	8060 fluorescence intensity (a.u.)
GTCATATTCTTCAGGGCACTCTATTGTTGGCTATCTTTCTCGGAGTCACCTAGTGCAG	8580 fluorescence intensity (a.u.)
CCACGCCACCCTAACCACACCCACACGCACGAAACCTAATCGGAGTCACCTAGTGCAG	12200 fluorescence intensity (a.u.)
TTGTTGTACTTGGCAGACTGTGGACTTTTAGGTCATCTTACGGAGTCACCTAGTGCAG	8630 fluorescence intensity (a.u.)
GTCTCGCGATTTCCCCTCTAATTGTGCAATTAGTTTTTTACGGAGTCACCTAGTGCAG	9920 fluorescence intensity (a.u.)
TTCGGGTATCGGGTGGGCGTACCCATGGGTAAAAAGTCACCGGAGTCACCTAGTGCAG	10100 fluorescence intensity (a.u.)
TGGAATTCGCGTTAACCCTAGCTTTTGTTCTAGAAATTTACGGAGTCACCTAGTGCAG	10200 fluorescence intensity (a.u.)
ACTCGCGCCGCTCGCCACATCCGACTCCTTCGAATCCTCTCGGAGTCACCTAGTGCAG	10400 fluorescence intensity (a.u.)
GAATAGTACTTTACTCGTGACTTATGTTTTTAATTTTTTTCGGAGTCACCTAGTGCAG	9960 fluorescence intensity (a.u.)
TATTAATGTCGTTATATTTTACTCATTTTGGTCTGAAATACGGAGTCACCTAGTGCAG	8060 fluorescence intensity (a.u.)
TGCTCTTGAAGTCTGTGTTTTTTAGTGTTTCATCCGACTGCGGAGTCACCTAGTGCAG	8340 fluorescence intensity (a.u.)
CAAAGGTGTTCGACGCGTGCTTCTCGGCGTCCAGCGTCTCCGGAGTCACCTAGTGCAG	8090 fluorescence intensity (a.u.)
GGGGAAGCTTCGTGGCGGGAGGCAGTTGGTGCTGTGGCTCCGGAGTCACCTAGTGCAG	8110 fluorescence intensity (a.u.)
TTTAAATGTTTCAGTTGCTATTTTTTTCGTTTCACTATATCGGAGTCACCTAGTGCAG	9000 fluorescence intensity (a.u.)
CGTTTCACCGTTCGTCTTATTTAAAATTATTTTATAATTACGGAGTCACCTAGTGCAG	8920 fluorescence intensity (a.u.)
TAGCTCTCTCTTGGTGTTCTCTCCTCCATGCAAGCTCTCTCGGAGTCACCTAGTGCAG	8240 fluorescence intensity (a.u.)
TCTCTGCAATATGGGGCATGCGACAATTTACTAACTATATCGGAGTCACCTAGTGCAG	8430 fluorescence intensity (a.u.)
AGGTAAGGATGCAAGCGGGCTTTTTTTTTCCCGCTTATCCCGGAGTCACCTAGTGCAG	10500 fluorescence intensity (a.u.)
CGCGTCGCGCGCCGTTGACGACTTTCCCGCGCCTATAAAACGGAGTCACCTAGTGCAG	8840 fluorescence intensity (a.u.)
CATACCCCAATCGTTCTTACACTGTTTAGTTTTGACTACCCGGAGTCACCTAGTGCAG	8740 fluorescence intensity (a.u.)

Sequence	binding signal
CATCTCCTCCACCTATAAAGCTACCCAGCTGATGCTTCCGCGGAGTCACCTAGTGCAG	8130 fluorescence intensity (a.u.)
AGAGAGCACGCGATCGATCGATCCCGCACCCTGTAATCCTCGGAGTCACCTAGTGCAG	8630 fluorescence intensity (a.u.)
ACGCACCAACCGTCCCTCTTTCGCTCACACTCTTCCTTCCCGGAGTCACCTAGTGCAG	9700 fluorescence intensity (a.u.)
CGTTGAACTCTCACTTACTAATTATATGTAAATACACCATCGGAGTCACCTAGTGCAG	9390 fluorescence intensity (a.u.)
ATCATTTTATCACTCTTTTTACTACCTCAAATATATCAGTCGGAGTCACCTAGTGCAG	8300 fluorescence intensity (a.u.)
TTCCTTTGCCTCGTCATCAAACCGCGCGCGCTCCTCAACTCGGAGTCACCTAGTGCAG	8880 fluorescence intensity (a.u.)
TTTCTTAAGTTCTTTTCTGTTCACTTCTGAATTTTTTGGCCGGAGTCACCTAGTGCAG	8600 fluorescence intensity (a.u.)
CACAGCGTCCACACCCGCGCCGCCGCCGCCCTCACCCTCGCGGAGTCACCTAGTGCAG	8760 fluorescence intensity (a.u.)
CTCACGCCCGCTCCGCCTCAGCCGTCGCTCACGCTCGCTTCGGAGTCACCTAGTGCAG	11000 fluorescence intensity (a.u.)
GTACGAGCGCCTCGAAGCAGCCGGCGCCGTCGGGGAGGGGCGGAGTCACCTAGTGCAG	8630 fluorescence intensity (a.u.)
TATGTAGCCTTCAACTTTGGTTTCTTTTTTTTGTTGCTCACGGAGTCACCTAGTGCAG	12300 fluorescence intensity (a.u.)
TTTCTGAGGGGAGGGAGAGGCTGGGCTGACCGGCTCAAGGCGGAGTCACCTAGTGCAG	10600 fluorescence intensity (a.u.)
AAACCGGCCACTGCTACCCCTTTTGTTCCTTGCTATCTCCCGGAGTCACCTAGTGCAG	10100 fluorescence intensity (a.u.)
CTGTGATCGCTTTGTTGTACTATTTACCGTTTCTGTTTGTCGGAGTCACCTAGTGCAG	8830 fluorescence intensity (a.u.)
TGCTTTCGCCATGACCGTCCTTGGTTGTTGCAGTCACTTGCGGAGTCACCTAGTGCAG	10500 fluorescence intensity (a.u.)
GTGCTTGGTAAAGTTTTCCTTTCCACCTTGTAGCTCTGCACGGAGTCACCTAGTGCAG	8090 fluorescence intensity (a.u.)
ACTTACCCTCCTGTACGAGTTTTGTGAATCTCTGATCATTCGGAGTCACCTAGTGCAG	8100 fluorescence intensity (a.u.)
CATGACATCAGTTTGGCCACACCCAATGGTTCCCGCTGCCCGGAGTCACCTAGTGCAG	8370 fluorescence intensity (a.u.)
GCGACGTGTCGTTGGGGCTGGGAGGCTGGGTCGCTCTCGCCGGAGTCACCTAGTGCAG	9830 fluorescence intensity (a.u.)
TTCCCTTCTCCGCTTTCCCTGCCTTGCAAATCCGCCAAAGCGGAGTCACCTAGTGCAG	8970 fluorescence intensity (a.u.)
TGTTCCTAGTGGTCCTGTCGCCGGCTTGAATTGAAAAGACCGGAGTCACCTAGTGCAG	8220 fluorescence intensity (a.u.)

Random excerpt: four records from the list
Sequence	binding signal
CTGTGATCGCTTTGTTGTACTATTTACCGTTTCTGTTTGTCGGAGTCACCTAGTGCAG	8830 fluorescence intensity (a.u.)
CGTTGAACTCTCACTTACTAATTATATGTAAATACACCATCGGAGTCACCTAGTGCAG	9390 fluorescence intensity (a.u.)
GTACGAGCGCCTCGAAGCAGCCGGCGCCGTCGGGGAGGGGCGGAGTCACCTAGTGCAG	8630 fluorescence intensity (a.u.)
ACTTACCCTCCTGTACGAGTTTTGTGAATCTCTGATCATTCGGAGTCACCTAGTGCAG	8100 fluorescence intensity (a.u.)

Continuation.

Sequence	binding signal
CATGCTGTATGTTCCCACTTTGAATCAAAAAGTGCTGTTACGGAGTCACCTAGTGCAG	8290 fluorescence intensity (a.u.)
GGAACATAAGTGTCCGATGGTAGCTATTTGTATACGACGTCGGAGTCACCTAGTGCAG	8230 fluorescence intensity (a.u.)
CGATTTCGACCAATCTAGCCGCTATGTGCACTCCTTTTCCCGGAGTCACCTAGTGCAG	12100 fluorescence intensity (a.u.)
TCATCTTCCTTAACAACTGCAGCATCACGTCATCGTCATCCGGAGTCACCTAGTGCAG	10300 fluorescence intensity (a.u.)
TCGTTGCCTCTCTCGCCGGCCGCCACGCTTGTCGCCCGCGCGGAGTCACCTAGTGCAG	8680 fluorescence intensity (a.u.)
TCTCACTCGTCATCCCTTGTCTCATACGTTTTTGCTCACCCGGAGTCACCTAGTGCAG	11700 fluorescence intensity (a.u.)
TACAGTCTATTACCTTCTGCTGTGTCTGCTTTGAAACAAACGGAGTCACCTAGTGCAG	8690 fluorescence intensity (a.u.)
GAGCGCACGATCCTCCCCTCCGCCGCCGGCCTTGCTTCTTCGGAGTCACCTAGTGCAG	8370 fluorescence intensity (a.u.)
ATTTTCCAGTCGTCGTTTTTAGATTGCTAAAAATATGTATCGGAGTCACCTAGTGCAG	8990 fluorescence intensity (a.u.)
AAAAGAGCATGTTCATACGCCCTGCATCCGTTAACAACACCGGAGTCACCTAGTGCAG	9980 fluorescence intensity (a.u.)
TCACAGGCATTTCCTCAAACACCTACCGGCTACCAGGCAACGGAGTCACCTAGTGCAG	10700 fluorescence intensity (a.u.)
TCTTCGGTTTTTTTGTTGGTAACCGATTGGTTACTATTGACGGAGTCACCTAGTGCAG	9580 fluorescence intensity (a.u.)
TTGGGTTGGGGTTGGGTTTGCAACTTTGCATAGCGTCGCACGGAGTCACCTAGTGCAG	11500 fluorescence intensity (a.u.)
GATTTCGGTAGTCTGTTCTGTTCTTCCAACTGTCTTCTCTCGGAGTCACCTAGTGCAG	12300 fluorescence intensity (a.u.)
GTGGTGGGTGGTGGCCGCGCTGCTGCGCGGTGGGTCGCATCGGAGTCACCTAGTGCAG	11400 fluorescence intensity (a.u.)
TTATGCATCGATATATACCACATGTCAACCGATGAATTCACGGAGTCACCTAGTGCAG	9490 fluorescence intensity (a.u.)
TGTGTTTTATTTTTTTTTCTGGATCGAATTGCCACATAAACGGAGTCACCTAGTGCAG	8970 fluorescence intensity (a.u.)
GCCGCCGACTCACCCAACCGCGCGCATCCCCGCGGCCCAACGGAGTCACCTAGTGCAG	8190 fluorescence intensity (a.u.)
TTTTGCTGCATTCGCCATCGTCATTGACGAGTCGATCTATCGGAGTCACCTAGTGCAG	8390 fluorescence intensity (a.u.)
ACTAGTACTCCCTCCGGTTTCATTTTAATTGACGTTTTGGCGGAGTCACCTAGTGCAG	8700 fluorescence intensity (a.u.)
TTGCCGCTCCACTCCGCCGGTCGCACGCTCACTCGCCTGCCGGAGTCACCTAGTGCAG	8870 fluorescence intensity (a.u.)
